These are yes or no findings as the source states them, for the method shown. Binding seen in cells or lysates may run through a third protein. These calls come from enrichment with a bait or labelling near it, and not all partners need be listed.
Target: Methionine adenosyltransferase α1 (MATα1), endogenous human (human (endogenous in human hepatocytes and liver)) (UniProt Q00266)
Assay: affinity purification with mass spectrometry; normal human liver lysates (1000 μg), IP with anti-MATα1 antibody, on-bead trypsin/Lys-C digestion, DIA-MS

By UniProt entry, the sequences of proteins in these tests, tags left out.
UniProt Q00266: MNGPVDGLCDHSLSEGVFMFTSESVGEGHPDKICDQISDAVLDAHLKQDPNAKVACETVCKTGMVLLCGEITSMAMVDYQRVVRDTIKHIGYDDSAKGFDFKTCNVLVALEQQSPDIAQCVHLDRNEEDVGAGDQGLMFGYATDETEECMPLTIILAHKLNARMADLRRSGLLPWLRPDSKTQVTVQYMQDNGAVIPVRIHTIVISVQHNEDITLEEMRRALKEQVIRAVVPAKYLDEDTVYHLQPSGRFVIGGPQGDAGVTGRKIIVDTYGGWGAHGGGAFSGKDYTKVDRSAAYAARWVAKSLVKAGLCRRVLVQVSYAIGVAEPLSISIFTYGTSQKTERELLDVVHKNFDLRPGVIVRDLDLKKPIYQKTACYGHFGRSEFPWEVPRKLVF

binding: binds
B1: MCAD, endogenous human (protein, UniProt P11310 26-421)
chain: KANRQREPGLGFSFEFTEQQKEFQATARKFAREEIIPVAAEYDKTGEYPVPLIRRAWELGLMNTHIPENCGGLGLGTFDACLISEELAYGCTGVQTAIEGNSLGQMPIIIAGNDQQKKKYLGRMTEEPLMCAYCVTEPGAGSDVAGIKTKAEKKGDEYIINGQKMWITNGGKANWYFLLARSDPDPKAPANKAFTGFIVEADTPGIQIGRKELNMGQRCSDTRGIVFEDVKVPKENVLIGDGAGFKVAMGAFDKTRPVVAAGAVGLAQRALDEATKYALERKTFGKLLVEHQAISFMLAEMAMKVELARMSYQRAAWEVDSGRRNTYYASIAKAFAGDIANQLATDAVQILGGNGFNTEYPVEKLMRDAKIYQIYEGTSQIQRLIVAREHIDKYKN
